Reference: US20210087163A1, “PHENOXY THIOPHENE SULFONAMIDES AND OTHER COMPOUNDS FOR USE AS INHIBITORS OF BACTERIAL GLUCURONIDASE” (NORTH CAROLINA CENTRAL UNIVERSITY, priority 2010, published 2021)

Protein sequences, listed by entry. Tags and fused reporters are not part of them. Lines headed by an entry give the natural chain unless they say otherwise; changes in a name come on top.
UniProt P05804: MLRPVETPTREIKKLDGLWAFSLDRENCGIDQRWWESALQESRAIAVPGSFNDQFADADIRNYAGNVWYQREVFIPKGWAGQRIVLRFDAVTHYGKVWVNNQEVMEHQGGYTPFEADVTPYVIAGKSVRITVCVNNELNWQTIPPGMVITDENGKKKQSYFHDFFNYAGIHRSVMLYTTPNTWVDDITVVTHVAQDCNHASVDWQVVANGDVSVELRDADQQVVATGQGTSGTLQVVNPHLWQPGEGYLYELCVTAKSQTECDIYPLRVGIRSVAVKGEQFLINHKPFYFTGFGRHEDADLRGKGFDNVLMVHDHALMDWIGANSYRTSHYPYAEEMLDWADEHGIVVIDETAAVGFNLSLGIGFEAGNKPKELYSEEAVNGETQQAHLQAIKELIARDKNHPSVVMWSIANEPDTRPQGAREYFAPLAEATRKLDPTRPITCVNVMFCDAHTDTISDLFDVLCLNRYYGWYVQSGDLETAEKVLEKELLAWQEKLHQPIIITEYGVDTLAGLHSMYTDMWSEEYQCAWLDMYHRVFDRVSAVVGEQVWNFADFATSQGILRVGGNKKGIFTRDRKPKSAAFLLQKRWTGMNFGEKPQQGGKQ

Molecular target: endogenous GUS activity in whole E. coli cells (Escherichia coli, UniProt P05804)
Experiment: GUS cell based assay (whole E. coli cells, 4MUG)
Conditions: running text
Experimental: An E. coli cell based assay was developed in order to assess the activity of these drugs against whole cells, instead of purified enzyme. We took advantage of the well-known specificity and sensitivity of the 4MUG substrate to detect GUS activity in E. coli cells. This assay mimicked the enzyme assay in format, with the GUS enzyme replaced by live log-phase E. coli cells and the assay incubated for a longer time (2 hr) to detect GUS activity in these un-modified cells.
Cultures of E col (DH5α) carrying the empty expression vector pCMV5 were grown over night in LB containing carbenicilin (50 μM) and then used to initiate fresh LB/carbenicillin cultures adjusted to an initial OD of 0.1. These cultures were allowed to reach an OD of 0.6 and then washed twice with 50 mM HEPES, pH 7.4 containing carbenicillin 50 μM, and concentrated by centrifugation to an OD of 1 for use in the assay. The GUS cell based assay was performed in an identical manner as the enzyme assay except the Triton X-100 was left out of the assay buffer, the E. coli cells replaced the enzyme and the reaction was allowed to proceed for 2 hrs at 37° C. The resulting data was analyzed as outlined for the enzyme assay.

SMILES: Clc1ccc2c(c1)C(N1CCNCC1)=Nc1ccccc1O2 [Amoxapine, amoxapine]
- IC50: 119 ± 61 nM
